Compound in this assay: Nc1nc2c(ncn2[C@@H]2O[C@H](COP(=O)(O)OP(=O)(O)OP(=O)(O)O)[C@@H](O)[C@H]2O)c(=O)[nH]1 [guanosine triphosphate]
Briefly: NP40-soluble protein abundance relative to vehicle (solubility fold change) (ratio); higher = more soluble protein in presence of GTP. On the procedure:
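Solubility proteome profiling in Jurkat crude lysate. Lysate was treated with Mg-GTP (0.1-10 mM) for 10 min at room temperature and 3 min at 37 °C, then solubilised with 0.8% NP40 and benzonase, followed by ultracentrifugation. Proteins were quantified by TMT10 LC-MS/MS; the value is the NP40-soluble abundance relative to the NP40-processed vehicle, from 3 independent experiments.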

Sequences of proteins named here, by UniProt entry; tags and fusion partners are left off. A change or cut given only in a name is not applied to a line headed by its entry.
UniProt Q9P1Y6: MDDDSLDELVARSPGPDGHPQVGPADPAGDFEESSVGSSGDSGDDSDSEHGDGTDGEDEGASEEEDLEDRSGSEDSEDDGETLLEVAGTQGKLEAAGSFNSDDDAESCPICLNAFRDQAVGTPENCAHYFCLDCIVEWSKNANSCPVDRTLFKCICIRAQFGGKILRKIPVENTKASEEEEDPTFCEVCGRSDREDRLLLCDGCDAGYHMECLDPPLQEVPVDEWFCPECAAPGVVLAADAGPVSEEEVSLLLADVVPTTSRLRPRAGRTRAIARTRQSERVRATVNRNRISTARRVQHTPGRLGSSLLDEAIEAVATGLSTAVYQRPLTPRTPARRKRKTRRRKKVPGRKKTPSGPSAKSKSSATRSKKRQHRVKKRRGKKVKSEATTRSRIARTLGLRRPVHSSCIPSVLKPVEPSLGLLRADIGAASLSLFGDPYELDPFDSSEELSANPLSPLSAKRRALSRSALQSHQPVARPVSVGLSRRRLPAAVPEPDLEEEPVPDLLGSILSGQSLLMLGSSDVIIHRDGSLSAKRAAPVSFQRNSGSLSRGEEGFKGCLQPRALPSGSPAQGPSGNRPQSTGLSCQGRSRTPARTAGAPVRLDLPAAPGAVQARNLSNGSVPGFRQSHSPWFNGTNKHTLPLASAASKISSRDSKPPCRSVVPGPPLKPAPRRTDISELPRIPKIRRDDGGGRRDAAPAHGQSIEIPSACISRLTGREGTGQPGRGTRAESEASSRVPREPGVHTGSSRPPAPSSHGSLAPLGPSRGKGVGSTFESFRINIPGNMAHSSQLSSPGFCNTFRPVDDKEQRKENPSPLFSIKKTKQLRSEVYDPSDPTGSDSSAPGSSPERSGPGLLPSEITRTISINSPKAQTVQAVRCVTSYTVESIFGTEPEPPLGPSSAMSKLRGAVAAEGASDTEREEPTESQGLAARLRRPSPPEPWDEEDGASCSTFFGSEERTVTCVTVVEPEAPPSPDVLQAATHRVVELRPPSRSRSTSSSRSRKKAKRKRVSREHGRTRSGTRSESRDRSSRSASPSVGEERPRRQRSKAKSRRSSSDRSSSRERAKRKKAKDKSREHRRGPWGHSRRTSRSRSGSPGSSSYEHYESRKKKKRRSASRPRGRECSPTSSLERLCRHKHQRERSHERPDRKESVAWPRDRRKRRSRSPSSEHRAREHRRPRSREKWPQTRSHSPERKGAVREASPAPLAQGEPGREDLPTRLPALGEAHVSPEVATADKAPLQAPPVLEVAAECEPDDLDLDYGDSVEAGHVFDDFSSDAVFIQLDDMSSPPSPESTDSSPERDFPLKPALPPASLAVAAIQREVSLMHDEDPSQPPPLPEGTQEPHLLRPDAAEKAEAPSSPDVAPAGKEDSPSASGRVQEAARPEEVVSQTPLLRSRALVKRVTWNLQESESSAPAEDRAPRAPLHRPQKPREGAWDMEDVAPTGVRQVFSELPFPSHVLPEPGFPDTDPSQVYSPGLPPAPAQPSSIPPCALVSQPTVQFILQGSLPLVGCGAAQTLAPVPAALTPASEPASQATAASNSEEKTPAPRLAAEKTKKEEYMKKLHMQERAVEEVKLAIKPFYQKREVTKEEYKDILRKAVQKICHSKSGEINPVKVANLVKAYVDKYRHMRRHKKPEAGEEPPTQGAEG
UniProt O75608: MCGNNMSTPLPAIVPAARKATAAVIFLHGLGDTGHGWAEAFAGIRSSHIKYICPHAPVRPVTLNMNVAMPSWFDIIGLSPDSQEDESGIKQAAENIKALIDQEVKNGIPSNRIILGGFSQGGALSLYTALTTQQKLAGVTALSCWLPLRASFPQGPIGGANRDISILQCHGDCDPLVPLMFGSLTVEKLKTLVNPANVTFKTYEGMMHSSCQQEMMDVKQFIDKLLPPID
UniProt Q8IWS0: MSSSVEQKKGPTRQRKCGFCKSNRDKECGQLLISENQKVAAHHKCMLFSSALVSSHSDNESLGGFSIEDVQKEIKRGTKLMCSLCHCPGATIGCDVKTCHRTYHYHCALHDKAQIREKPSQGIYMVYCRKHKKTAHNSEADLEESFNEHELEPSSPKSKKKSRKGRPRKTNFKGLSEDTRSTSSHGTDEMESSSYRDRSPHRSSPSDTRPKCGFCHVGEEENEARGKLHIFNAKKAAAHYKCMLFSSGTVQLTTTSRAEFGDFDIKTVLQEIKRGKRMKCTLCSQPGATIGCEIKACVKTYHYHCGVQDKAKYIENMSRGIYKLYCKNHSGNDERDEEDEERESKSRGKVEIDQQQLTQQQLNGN
UniProt P57075: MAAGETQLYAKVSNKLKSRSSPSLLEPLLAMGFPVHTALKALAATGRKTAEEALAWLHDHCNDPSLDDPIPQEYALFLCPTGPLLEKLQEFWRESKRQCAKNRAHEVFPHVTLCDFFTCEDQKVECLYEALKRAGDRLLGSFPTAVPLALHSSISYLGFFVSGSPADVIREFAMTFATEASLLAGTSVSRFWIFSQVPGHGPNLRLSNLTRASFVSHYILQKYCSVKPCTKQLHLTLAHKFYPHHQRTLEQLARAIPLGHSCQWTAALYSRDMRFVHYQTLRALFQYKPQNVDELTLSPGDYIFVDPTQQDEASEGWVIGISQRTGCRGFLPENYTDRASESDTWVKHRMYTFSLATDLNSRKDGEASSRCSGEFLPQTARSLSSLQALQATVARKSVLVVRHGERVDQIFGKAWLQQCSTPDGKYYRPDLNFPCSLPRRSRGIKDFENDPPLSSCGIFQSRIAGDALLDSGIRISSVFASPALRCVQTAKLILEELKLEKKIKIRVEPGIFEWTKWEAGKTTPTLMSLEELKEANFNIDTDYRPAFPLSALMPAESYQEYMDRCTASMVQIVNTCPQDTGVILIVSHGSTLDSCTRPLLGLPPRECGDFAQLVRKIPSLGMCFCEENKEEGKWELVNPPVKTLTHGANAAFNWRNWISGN
UniProt Q9H2P9: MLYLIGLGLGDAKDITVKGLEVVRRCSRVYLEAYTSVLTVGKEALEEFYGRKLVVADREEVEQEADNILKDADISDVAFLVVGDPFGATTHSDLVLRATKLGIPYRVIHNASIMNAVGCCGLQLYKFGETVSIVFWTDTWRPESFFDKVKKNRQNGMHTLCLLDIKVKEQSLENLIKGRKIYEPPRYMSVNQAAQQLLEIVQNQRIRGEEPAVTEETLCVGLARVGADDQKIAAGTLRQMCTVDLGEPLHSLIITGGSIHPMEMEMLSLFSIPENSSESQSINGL

± gives the standard deviation of the averaged measurements. Some of the results follow.

Turning to “A0A0J9YWD5|A0A0J9YYB5|B7ZM65 and related entries (UniProt Q9P1Y6)”, the NP40-soluble protein abundance is 0.941 ± 0.075 (concentration: 0.1mM); 0.94 ± 0.049 (concentration: 0.5mM); 0.981 ± 0.045 (concentration: 1mM); 1.02 ± 0.08 (concentration: 2mM); 1.23 ± 0.14 (concentration: 4mM); 1.15 ± 0.15 (concentration: 6mM). For the same target, the NP40-soluble protein abundance was determined as 1.27 ± 0.22 (concentration: 8mM) and 1.25 ± 0.21 (concentration: 10mM).

Regarding “A0A087X1K9|E5RGR0 and related entries (UniProt O75608)”, the NP40-soluble protein abundance turned out to be 0.899 ± 0.012 (concentration: 0.1mM); 0.884 ± 0.057 (concentration: 0.5mM); 0.893 ± 0.055 (concentration: 1mM); 0.866 ± 0.074 (concentration: 2mM); 0.839 ± 0.065 (concentration: 4mM); 0.881 ± 0.083 (concentration: 6mM). The NP40-soluble protein abundance runs as follows: (concentration: 8mM) 0.83 ± 0.094; (concentration: 10mM) 0.821 ± 0.098.

On to “A0A0D9SGE8|Q8IWS0 and related entries (UniProt Q8IWS0)”, for which the NP40-soluble protein abundance (concentration: 0.1mM) is 0.974 ± 0.048; the NP40-soluble protein abundance (concentration: 0.5mM) was found to be 0.981 ± 0.033; the NP40-soluble protein abundance (concentration: 1mM) is 0.983 ± 0.056; the NP40-soluble protein abundance (concentration: 2mM) was found to be 0.992 ± 0.056; the NP40-soluble protein abundance (concentration: 4mM) was determined as 1 ± 0.067; the NP40-soluble protein abundance (concentration: 6mM) came out at 1.03 ± 0.049. Moreover, the NP40-soluble protein abundance reads like this: (concentration: 8mM) 1.03 ± 0.07; (concentration: 10mM) 1.03 ± 0.069.

Regarding “A0A0U1RRC9|P57075 and related entries (UniProt P57075)”, the NP40-soluble protein abundance (concentration: 0.1mM) came to 1.01 ± 0.067; the NP40-soluble protein abundance (concentration: 0.5mM) was determined as 1.04 ± 0.12; the NP40-soluble protein abundance (concentration: 1mM) was found to be 0.905 ± 0.063; the NP40-soluble protein abundance (concentration: 2mM) is 0.96 ± 0.066; the NP40-soluble protein abundance (concentration: 4mM) was found to be 0.977 ± 0.08; the NP40-soluble protein abundance (concentration: 6mM) turned out to be 0.968 ± 0.093. Also, the NP40-soluble protein abundance runs as follows: (concentration: 8mM) 0.938 ± 0.032; (concentration: 10mM) 0.936 ± 0.064.

For “A0A087WXP7|Q9H2P9 and related entries (UniProt Q9H2P9)”, the NP40-soluble protein abundance came to 1.02 ± 0.076 (concentration: 0.1mM); 0.973 ± 0.095 (concentration: 0.5mM); 0.95 ± 0.03 (concentration: 1mM); 0.936 ± 0.038 (concentration: 2mM); 0.898 ± 0.05 (concentration: 4mM); 0.909 ± 0.034 (concentration: 6mM). Besides, the NP40-soluble protein abundance (concentration: 8mM) worked out at 0.905 ± 0.032 and the NP40-soluble protein abundance (concentration: 10mM) is 0.864 ± 0.034.

The record behind these values is the supplement of paper PMC6411743.
